Here are results for 1 compound from PMC7427514 (Chem, 2020).

This assay relates to 3DIV hippocampal mouse neurons. Briefly: Ca2+ influx assay upon GABA application in immature. In kind it is cell-based. To be noted: 10 and 100 μM.

Consider `NS(=O)(=O)c1cc(C(=O)O)c(NCc2ccco2)cc1Cl` [furosemide], for which the “level of alleged NKCC1 inhibition in the Ca2+ influx assay compared with the Cl− influx assay” value is reported as “higher potency than in the Cl^− influx assay”.
